Assay results as given in the supplement of paper PMC10849652.
The other results are listed elsewhere or left out.

By UniProt entry, the sequences of proteins in these tests, tags left out. Where a name states a change or a piece, a line headed by the entry shows the natural chain unless it says otherwise.
UniProt Q9H000: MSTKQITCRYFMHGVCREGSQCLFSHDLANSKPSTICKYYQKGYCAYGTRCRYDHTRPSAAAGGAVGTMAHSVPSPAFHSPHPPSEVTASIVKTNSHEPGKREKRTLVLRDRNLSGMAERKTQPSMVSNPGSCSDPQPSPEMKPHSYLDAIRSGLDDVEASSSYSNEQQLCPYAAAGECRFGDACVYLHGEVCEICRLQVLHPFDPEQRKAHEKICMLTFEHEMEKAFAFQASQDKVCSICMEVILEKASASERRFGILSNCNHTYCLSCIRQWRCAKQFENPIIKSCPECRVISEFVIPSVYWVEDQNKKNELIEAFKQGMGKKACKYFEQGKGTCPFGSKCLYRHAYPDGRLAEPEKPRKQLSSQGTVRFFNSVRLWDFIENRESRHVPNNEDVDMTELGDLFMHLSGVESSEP
UniProt Q9NZB8: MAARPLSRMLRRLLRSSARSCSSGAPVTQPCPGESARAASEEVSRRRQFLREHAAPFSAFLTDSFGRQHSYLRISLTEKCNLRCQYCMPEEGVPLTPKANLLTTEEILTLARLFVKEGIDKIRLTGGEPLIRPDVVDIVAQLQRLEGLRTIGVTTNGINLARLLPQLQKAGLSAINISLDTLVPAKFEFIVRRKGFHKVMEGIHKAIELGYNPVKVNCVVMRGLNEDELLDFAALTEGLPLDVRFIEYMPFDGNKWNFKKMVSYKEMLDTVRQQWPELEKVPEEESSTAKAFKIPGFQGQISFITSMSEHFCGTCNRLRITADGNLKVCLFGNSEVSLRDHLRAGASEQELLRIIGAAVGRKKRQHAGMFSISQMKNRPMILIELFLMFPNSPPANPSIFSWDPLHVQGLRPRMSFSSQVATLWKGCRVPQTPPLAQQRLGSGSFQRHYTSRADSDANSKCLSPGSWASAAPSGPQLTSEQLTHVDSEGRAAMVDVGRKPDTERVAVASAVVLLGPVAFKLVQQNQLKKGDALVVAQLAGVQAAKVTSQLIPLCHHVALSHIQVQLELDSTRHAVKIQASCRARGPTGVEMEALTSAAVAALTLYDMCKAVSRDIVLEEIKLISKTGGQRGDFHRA
UniProt Q4G0A6: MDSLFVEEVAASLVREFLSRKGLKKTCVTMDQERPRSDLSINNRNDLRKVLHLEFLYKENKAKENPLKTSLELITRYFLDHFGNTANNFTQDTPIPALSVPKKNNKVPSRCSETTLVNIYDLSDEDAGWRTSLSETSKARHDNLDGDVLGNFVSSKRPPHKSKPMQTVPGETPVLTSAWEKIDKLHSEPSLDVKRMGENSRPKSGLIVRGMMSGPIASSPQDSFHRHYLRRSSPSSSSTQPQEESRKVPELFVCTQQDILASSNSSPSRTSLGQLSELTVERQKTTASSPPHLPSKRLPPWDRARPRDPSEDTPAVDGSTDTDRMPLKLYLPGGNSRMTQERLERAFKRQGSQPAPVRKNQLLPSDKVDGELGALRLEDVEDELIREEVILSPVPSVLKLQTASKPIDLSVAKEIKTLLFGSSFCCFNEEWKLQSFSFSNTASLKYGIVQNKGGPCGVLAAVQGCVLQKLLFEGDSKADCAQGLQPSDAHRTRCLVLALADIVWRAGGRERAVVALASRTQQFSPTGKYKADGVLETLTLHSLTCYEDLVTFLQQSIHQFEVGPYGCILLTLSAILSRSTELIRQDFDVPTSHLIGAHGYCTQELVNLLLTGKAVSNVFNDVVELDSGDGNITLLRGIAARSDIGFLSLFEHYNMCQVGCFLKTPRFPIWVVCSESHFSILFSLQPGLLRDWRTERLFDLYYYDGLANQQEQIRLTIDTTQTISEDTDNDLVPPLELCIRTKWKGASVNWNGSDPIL
UniProt Q7L9L4: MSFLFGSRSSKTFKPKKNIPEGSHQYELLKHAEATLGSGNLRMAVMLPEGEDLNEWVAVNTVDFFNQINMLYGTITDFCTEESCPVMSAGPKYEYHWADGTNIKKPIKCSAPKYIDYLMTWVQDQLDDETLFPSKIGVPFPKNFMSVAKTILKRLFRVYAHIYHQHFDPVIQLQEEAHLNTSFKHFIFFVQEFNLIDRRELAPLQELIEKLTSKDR
UniProt Q9H081: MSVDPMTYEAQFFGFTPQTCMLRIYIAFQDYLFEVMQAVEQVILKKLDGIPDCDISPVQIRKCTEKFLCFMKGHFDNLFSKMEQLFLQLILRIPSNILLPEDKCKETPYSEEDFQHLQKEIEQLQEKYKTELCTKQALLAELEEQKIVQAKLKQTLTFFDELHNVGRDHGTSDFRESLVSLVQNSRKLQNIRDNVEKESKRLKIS
UniProt Q15014, whole entry, looked up: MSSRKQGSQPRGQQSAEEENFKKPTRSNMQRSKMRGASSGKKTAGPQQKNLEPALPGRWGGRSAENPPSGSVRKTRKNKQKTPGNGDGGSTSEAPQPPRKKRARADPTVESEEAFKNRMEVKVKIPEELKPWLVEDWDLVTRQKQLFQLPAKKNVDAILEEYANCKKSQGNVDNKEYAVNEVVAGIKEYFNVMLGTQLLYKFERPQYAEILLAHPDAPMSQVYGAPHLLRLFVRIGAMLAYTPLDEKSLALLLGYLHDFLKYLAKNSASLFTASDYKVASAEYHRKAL
UniProt P34949: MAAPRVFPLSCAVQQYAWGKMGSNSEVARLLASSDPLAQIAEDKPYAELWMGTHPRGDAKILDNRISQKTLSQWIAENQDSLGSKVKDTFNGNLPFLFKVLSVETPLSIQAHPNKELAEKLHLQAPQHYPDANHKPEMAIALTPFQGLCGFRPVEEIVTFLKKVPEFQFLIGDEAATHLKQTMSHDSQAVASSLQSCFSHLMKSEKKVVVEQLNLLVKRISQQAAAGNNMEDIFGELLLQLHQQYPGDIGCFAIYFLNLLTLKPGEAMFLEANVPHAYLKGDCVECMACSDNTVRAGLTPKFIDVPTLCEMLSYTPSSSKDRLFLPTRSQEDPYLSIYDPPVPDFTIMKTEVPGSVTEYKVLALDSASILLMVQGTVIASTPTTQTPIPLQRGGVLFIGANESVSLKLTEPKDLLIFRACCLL
UniProt Q96T76: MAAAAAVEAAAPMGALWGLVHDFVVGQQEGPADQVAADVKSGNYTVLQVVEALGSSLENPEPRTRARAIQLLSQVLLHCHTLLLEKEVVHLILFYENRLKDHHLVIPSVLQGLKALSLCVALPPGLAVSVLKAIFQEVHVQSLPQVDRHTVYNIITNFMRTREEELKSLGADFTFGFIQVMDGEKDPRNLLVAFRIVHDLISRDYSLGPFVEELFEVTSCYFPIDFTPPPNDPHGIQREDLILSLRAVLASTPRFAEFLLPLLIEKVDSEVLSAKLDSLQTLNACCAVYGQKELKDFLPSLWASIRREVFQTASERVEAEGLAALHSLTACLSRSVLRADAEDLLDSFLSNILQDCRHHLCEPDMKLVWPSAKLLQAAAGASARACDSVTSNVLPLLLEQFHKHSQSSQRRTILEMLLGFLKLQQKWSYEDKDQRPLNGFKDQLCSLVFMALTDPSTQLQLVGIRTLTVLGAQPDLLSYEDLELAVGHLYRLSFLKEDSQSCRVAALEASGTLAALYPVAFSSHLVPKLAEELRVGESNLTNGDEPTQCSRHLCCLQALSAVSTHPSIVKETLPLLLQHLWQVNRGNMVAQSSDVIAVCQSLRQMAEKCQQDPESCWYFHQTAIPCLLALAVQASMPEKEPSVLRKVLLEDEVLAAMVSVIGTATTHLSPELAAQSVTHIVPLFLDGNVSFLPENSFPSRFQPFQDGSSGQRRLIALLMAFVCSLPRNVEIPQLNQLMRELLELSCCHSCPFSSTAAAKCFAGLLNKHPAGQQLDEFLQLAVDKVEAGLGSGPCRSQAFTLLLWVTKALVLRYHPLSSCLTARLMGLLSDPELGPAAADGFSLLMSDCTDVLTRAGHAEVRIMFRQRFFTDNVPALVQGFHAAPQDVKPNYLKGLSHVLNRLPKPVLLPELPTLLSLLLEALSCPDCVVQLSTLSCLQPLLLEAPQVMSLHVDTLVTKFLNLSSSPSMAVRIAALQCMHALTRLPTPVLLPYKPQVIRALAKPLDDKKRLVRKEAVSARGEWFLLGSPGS
UniProt Q9UL63, whole entry, looked up: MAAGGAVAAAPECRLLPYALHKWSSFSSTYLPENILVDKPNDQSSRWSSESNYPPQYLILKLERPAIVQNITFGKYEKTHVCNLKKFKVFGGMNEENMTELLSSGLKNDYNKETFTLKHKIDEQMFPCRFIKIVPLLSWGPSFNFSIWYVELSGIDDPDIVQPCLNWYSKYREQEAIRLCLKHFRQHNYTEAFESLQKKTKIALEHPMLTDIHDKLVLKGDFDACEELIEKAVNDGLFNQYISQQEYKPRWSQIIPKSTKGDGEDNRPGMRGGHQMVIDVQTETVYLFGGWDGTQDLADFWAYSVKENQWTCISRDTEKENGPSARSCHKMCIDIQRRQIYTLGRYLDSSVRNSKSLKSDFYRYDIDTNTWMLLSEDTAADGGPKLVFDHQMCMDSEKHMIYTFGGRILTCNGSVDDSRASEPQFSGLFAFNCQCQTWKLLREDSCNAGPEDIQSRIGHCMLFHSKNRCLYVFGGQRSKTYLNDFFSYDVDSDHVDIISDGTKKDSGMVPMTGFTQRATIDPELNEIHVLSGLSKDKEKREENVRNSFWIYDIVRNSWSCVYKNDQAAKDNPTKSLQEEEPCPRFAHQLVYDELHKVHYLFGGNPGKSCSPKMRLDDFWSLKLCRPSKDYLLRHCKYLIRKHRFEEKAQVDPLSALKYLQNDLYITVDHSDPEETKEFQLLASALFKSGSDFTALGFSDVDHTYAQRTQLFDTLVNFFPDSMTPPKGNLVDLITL
UniProt Q9NV56, whole entry, looked up: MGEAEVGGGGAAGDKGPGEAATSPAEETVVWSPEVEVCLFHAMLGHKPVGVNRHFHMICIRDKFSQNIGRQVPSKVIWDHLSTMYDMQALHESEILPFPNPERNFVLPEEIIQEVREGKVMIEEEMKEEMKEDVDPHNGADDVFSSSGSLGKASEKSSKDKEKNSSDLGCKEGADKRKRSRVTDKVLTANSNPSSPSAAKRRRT
UniProt O95563: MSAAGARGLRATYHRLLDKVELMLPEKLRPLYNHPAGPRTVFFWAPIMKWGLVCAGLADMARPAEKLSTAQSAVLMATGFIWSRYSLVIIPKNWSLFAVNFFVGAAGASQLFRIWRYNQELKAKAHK
UniProt Q9H8M7: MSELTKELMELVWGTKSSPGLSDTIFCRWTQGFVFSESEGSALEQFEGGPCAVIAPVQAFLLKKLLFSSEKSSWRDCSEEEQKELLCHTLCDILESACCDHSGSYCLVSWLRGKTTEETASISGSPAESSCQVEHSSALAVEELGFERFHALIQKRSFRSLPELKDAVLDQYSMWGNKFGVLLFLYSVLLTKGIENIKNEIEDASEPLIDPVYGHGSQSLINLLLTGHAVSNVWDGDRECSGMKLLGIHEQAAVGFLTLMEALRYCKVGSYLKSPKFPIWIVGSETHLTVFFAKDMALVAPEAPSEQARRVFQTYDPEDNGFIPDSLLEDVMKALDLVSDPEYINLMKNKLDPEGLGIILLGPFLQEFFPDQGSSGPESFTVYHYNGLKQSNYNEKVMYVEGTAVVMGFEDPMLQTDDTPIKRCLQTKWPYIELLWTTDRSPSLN
UniProt Q5XKP0: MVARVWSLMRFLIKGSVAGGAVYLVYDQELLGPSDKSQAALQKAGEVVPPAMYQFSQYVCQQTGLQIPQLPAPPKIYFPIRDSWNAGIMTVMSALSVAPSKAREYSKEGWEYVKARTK
UniProt Q96EN8: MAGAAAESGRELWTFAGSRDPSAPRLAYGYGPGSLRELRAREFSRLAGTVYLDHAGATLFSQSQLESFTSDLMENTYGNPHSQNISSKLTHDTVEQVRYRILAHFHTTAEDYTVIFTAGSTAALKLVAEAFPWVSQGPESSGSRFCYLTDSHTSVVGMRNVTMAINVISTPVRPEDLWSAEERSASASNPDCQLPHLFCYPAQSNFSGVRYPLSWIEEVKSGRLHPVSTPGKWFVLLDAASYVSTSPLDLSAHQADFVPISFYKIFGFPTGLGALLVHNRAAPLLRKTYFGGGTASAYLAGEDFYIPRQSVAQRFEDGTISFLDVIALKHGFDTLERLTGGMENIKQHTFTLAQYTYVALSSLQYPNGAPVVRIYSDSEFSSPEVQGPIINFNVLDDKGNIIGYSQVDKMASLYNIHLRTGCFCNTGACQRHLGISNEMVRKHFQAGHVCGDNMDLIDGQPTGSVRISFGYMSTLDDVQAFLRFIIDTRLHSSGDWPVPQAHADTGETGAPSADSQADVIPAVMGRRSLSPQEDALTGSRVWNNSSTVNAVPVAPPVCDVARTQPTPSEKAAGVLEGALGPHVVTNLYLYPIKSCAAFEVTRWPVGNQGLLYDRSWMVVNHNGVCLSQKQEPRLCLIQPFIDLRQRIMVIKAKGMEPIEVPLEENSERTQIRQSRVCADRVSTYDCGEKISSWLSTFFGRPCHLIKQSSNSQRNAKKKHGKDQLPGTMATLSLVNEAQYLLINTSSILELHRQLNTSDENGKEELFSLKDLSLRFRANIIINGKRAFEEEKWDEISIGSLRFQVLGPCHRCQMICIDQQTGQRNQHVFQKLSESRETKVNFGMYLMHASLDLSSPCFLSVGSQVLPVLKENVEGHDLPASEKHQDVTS

Legend:
Experiment in all cases: log2 fold change, soluble protein after heating vs DMSO (PISA); higher = thermal stabilisation; K562 cells, 10 uM, 30 min; active = over 0.2 and 3.5 SD of the protein, either way, in both replicates (recomputed)
[1] = compound: CC1=C(C=C(C=C1)NC(=O)C2=CC(=CC=C2)C(C)(C)C#N)NC3=CC4=C(C=C3)N=CN(C4=O)C
In short: (§1)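 K562 cells at 2×10^6 cells/mL were exposed to 10 μM compound for 30 min, then aliquots were heated for 3 min across 48°C-58°C, pooled, and extracted in PBS containing 0.5% NP-40 at 4°C. The supernatant after 21,000xg for 90 min was taken as soluble protein and measured by TMTpro 16plex LC-MS/MS with channel sums equalised. Thermal stability is reported relative to control samples, with values from duplicates. Fold changes are given on a log2 scale.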

[2] = compound: CC1=C(C=C(C=C1)NC(=O)C2=CC(=CC=C2)N(C)C)NC(=O)C3=CC=C(C=C3)O
In short: as §1

[3] = compound: CC1=CC=C(C=C1)SC2=C3C=C(SC3=CN=C2)C(=O)N
In short: as §1

[4] = compound: CC1=NC(=CC=C1)C2=C(N=C(N2)C(C)(C)C)C3=CC4=NC=CN=C4C=C3
In short: as §1

Nexturastat A = compound: CCCCN(Cc1ccc(C(=O)NO)cc1)C(=O)Nc1ccccc1 [Nexturastat A]
In short: as §1

vemurafenib = compound: CCCS(=O)(=O)Nc1ccc(F)c(C(=O)c2c[nH]c3ncc(-c4ccc(Cl)cc4)cc23)c1F [vemurafenib]
In short: as §1

[5] = compound: CCCS(=O)(=O)Nc1ccc(F)c(C(=O)c2c[nH]c3ncc(Cl)cc23)c1F
In short: as §1

[6] = compound: CCCc1cc(C)[nH]c(=O)c1CNC(=O)c1cc(-c2ccnc(N3CCN(C)CC3)c2)cc2c1cnn2C(C)C
In short: as §1

givinostat = compound: CCN(CC)Cc1ccc2cc(COC(=O)Nc3ccc(C(=O)NO)cc3)ccc2c1 [givinostat]
In short: as §1

barasertib = compound: CCN(CCCOc1ccc2c(Nc3cc(CC(=O)Nc4cccc(F)c4)[nH]n3)ncnc2c1)CCOP(=O)(O)O [barasertib]
In short: as §1

Measured: log2 fold change

MKRN2 (UniProt Q9H000)
inactive: [1] 0.147 | [2] 0.059 | [3] -0.002 | [4] 0.086 | Nexturastat A 0.091 | vemurafenib 0.095 | [5] 0.035 | [6] -0.045 | givinostat 0.083 | barasertib -0.098

MINPP1 (UniProt Q9UNW1)
inactive: [1] -0.021 | [2] -0.002 | [3] 0.045 | [4] 0.023 | Nexturastat A -0.073 | vemurafenib -0.022 | [5] 0.031 | [6] 0.035 | givinostat -0.055 | barasertib -0.024

MOCS1 isoform 8 (UniProt Q9NZB8)
inactive: [1] -0.051 | [2] 0.013 | [3] 0.026 | [4] -0.009 | Nexturastat A -0.082 | vemurafenib 0.022 | [5] -0.024 | [6] 0.125 | givinostat -0.036 | barasertib -0.013

MRPL50 (UniProt Q8N5N7)
inactive: [1] -0.09 | [2] -0.04 | [3] 0.175 | [4] -0.031 | Nexturastat A 0.208 | vemurafenib 0.034 | [5] 0.244 | [6] -0.058 | givinostat 0.05 | barasertib -0.057

MINDY4 (UniProt Q4G0A6)
inactive: [1] -0.004 | [2] -0.08

MRPL22 (UniProt Q9NWU5)
inactive: [1] 0.011 | [2] -0.074 | [3] -0.084 | [4] -0.157 | Nexturastat A 0.304 | vemurafenib -0.142 | [5] -0.051 | [6] -0.011 | givinostat 0.154 | barasertib -0.026

MRPL52 (UniProt Q86TS9)
inactive: [1] -0.003

MOB1B isoform 2 (UniProt Q7L9L4)
inactive: [1] 0.014 | [2] 0.011 | [3] 0.02 | [4] 0.038 | Nexturastat A -0.022 | vemurafenib 0.017 | [5] 0.032 | [6] -0.079 | givinostat 0.012 | barasertib 0.012

MRPL35 (UniProt Q9NZE8)
inactive: [1] -0.002 | [2] -0.121 | [3] -0.065 | [4] -0.087 | Nexturastat A 0.189 | vemurafenib -0.041 | [5] -0.074 | [6] 0.02 | givinostat -0.066 | barasertib -0.053

MRPL16 (UniProt Q9NX20)
inactive: [1] 0.019 | [2] -0.036 | [3] -0.069 | [4] -0.047 | Nexturastat A 0.059 | vemurafenib -0.095 | [5] 0.009 | [6] 0.04 | givinostat 0.001 | barasertib -0.045

MIS12 (UniProt Q9H081)
inactive: [1] -0.008 | [2] -0.141 | [3] -0.004 | [4] 0.044 | Nexturastat A 0.056 | vemurafenib 0.074 | [5] -0.002 | [6] 0.023 | givinostat 0.102 | barasertib 0.049

MRPL37 (UniProt Q9BZE1)
inactive: [1] 0.026 | [2] -0.047 | [3] -0.059 | [4] -0.02 | Nexturastat A 0.063 | vemurafenib -0.096 | [5] -0.024 | [6] -0.015 | givinostat 0.042 | barasertib -0.079

MORF4L2 (UniProt Q15014)
inactive: [1] -0.004 | [2] -0.061 | [3] -0.015 | [4] -0.083 | Nexturastat A 0.129 | vemurafenib 0.009 | [5] 0.036 | [6] 0.038 | givinostat -0.007 | barasertib -0.03

MPI (UniProt P34949)
inactive: [1] -0.09 | [2] -0.013 | [3] 0.021 | [4] 0.01 | Nexturastat A -0.076 | vemurafenib 0.002 | [5] 0.01 | [6] -0.13 | givinostat -0.045 | barasertib 0.039

MRPL32 (UniProt Q9BYC8)
inactive: [1] 0.032 | [2] -0.004 | [3] -0.081 | [4] -0.037 | Nexturastat A 0.174 | vemurafenib -0.112 | [5] -0.096 | [6] 0.051 | givinostat -0.065 | barasertib -0.063

MIPEP (UniProt Q99797)
inactive: [1] -0.001 | [2] 0.096 | [3] -0.009 | [4] 0.021 | Nexturastat A -0.059 | vemurafenib 0.015 | [5] 0.033 | [6] 0.007 | givinostat -0.019 | barasertib 0.001

MRPL13 (UniProt Q9BYD1)
inactive: [1] -0.004 | [2] -0.036 | [3] -0.104 | [4] -0.161 | Nexturastat A 0.175 | vemurafenib -0.017 | [5] -0.05 | [6] 0.012 | givinostat 0.037 | barasertib -0.031

Taken from the entries so far (two entries):
MRPL37 (UniProt Q9BZE1)
inactive: [1] 0.026 | [2] -0.047 | [3] -0.059 | [4] -0.02 | Nexturastat A 0.063 | vemurafenib -0.096 | [5] -0.024 | [6] -0.015 | givinostat 0.042 | barasertib -0.079

MORF4L2 (UniProt Q15014)
inactive: [1] -0.004 | [2] -0.061 | [3] -0.015 | [4] -0.083 | Nexturastat A 0.129 | vemurafenib 0.009 | [5] 0.036 | [6] 0.038 | givinostat -0.007 | barasertib -0.03

(next part)

MRPL17 (UniProt Q9NRX2)
inactive: [1] 0.027 | [2] -0.007 | [3] -0.087 | [4] -0.026 | Nexturastat A 0.126 | vemurafenib -0.08 | [5] -0.054 | [6] 0.049 | givinostat -0.003 | barasertib -0.051

MRPL14 (UniProt Q6P1L8)
inactive: [1] 0.076 | [2] 0.031 | [3] 0.066 | [4] -0.05 | Nexturastat A -0.13 | vemurafenib 0.025 | [5] -0.017 | [6] 0.039 | givinostat 0.104 | barasertib -0.026

MMS19 isoform 8 (UniProt Q96T76)
inactive: [1] -0.022 | [2] -0.029 | [3] 0 | [4] 0.067 | Nexturastat A 0.051 | vemurafenib 0.047 | [5] 0.1 | [6] 0.061 | givinostat -0.061 | barasertib 0.063

MRPL24 (UniProt Q96A35)
inactive: [1] 0.043 | [2] -0.104 | [3] -0.05 | [4] -0.058 | Nexturastat A 0.287 | vemurafenib -0.044 | [5] 0.016 | [6] 0.145 | givinostat -0.02 | barasertib -0.066

MKLN1 (UniProt Q9UL63)
inactive: [1] 0.026 | [2] -0.035 | [3] -0.016 | [4] -0.04 | Nexturastat A 0.059 | vemurafenib -0.05 | [5] -0.005 | [6] 0.038 | givinostat -0.01 | barasertib 0.008

MRGBP (UniProt Q9NV56)
inactive: [1] -0.036 | [2] -0.036 | [3] -0.044 | [4] 0.026 | Nexturastat A -0.055 | vemurafenib 0.018 | [5] 0.068 | [6] -0.096 | givinostat -0.066 | barasertib 0.037

MPC2 (UniProt O95563)
inactive: [1] 0.001 | [2] 0.014 | [3] 0.057 | [4] 0.017 | Nexturastat A -0.063 | vemurafenib 0.009 | [5] -0.028 | [6] -0.103 | givinostat 0.031 | barasertib -0.012

MRPL20 (UniProt Q9BYC9)
inactive: [1] 0.054 | [2] -0.072 | [3] -0.072 | [4] -0.186 | Nexturastat A 0.151 | vemurafenib -0.103 | [5] -0.039 | [6] 0.055 | givinostat 0.058 | barasertib -0.048

MINDY3 (UniProt Q9H8M7)
inactive: [1] -0.044 | [2] -0.009 | [3] -0.013 | [4] 0.039 | Nexturastat A -0.204 | vemurafenib -0.021 | [5] 0.028 | [6] 0.022 | givinostat -0.017 | barasertib 0.019

MICOS13 (UniProt Q5XKP0)
inactive: [1] 0.041 | [2] -0.06 | [3] 0.056 | [4] 0.065 | Nexturastat A -0.065 | vemurafenib 0.018 | [5] 0.077 | [6] -0.069 | givinostat 0.027 | barasertib 0.034

MRPL21 (UniProt Q7Z2W9)
inactive: [1] 0.087 | [2] 0.001 | [3] 0.011 | [4] -0.058 | Nexturastat A 0.164 | vemurafenib -0.059 | [5] 0.068 | [6] 0.054 | givinostat -0.02 | barasertib -0.085

MRPL49 (UniProt Q13405)
inactive: [1] -0.003 | [2] -0.102 | [3] -0.104 | [4] -0.08 | Nexturastat A 0.173 | vemurafenib 0.014 | [5] -0.103 | [6] -0.023 | givinostat -0.075 | barasertib 0.003

MRPL47 (UniProt Q9HD33)
inactive: [1] 0.035 | [2] -0.045 | [3] -0.03 | [4] -0.078 | Nexturastat A 0.139 | vemurafenib -0.117 | [5] -0.097 | [6] 0.073 | givinostat 0.052 | barasertib -0.047

MOCOS (UniProt Q96EN8)
inactive: [1] 0.045 | [2] 0.005 | [3] -0.027 | [4] -0.09 | Nexturastat A -0.039 | vemurafenib -0.039 | [5] 0.028 | [6] -0.054 | givinostat -0.023 | barasertib 0.062
